PubChem BioAssay AID686937 | Drosophila RNAi Screening Center – 2013

Assay: 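Knock-downs that reduce output of a secreted reporter enzyme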 (primary screen)
Cell system: Drosophila S2 cells expressing secreted horseradish peroxidase
Knock-down reagent: long dsRNA against Drosophila genes
Duration: about 5.5 days (5 days dsRNA, then 12 h reporter induction)
Challenge: reporter expression induced after 5 days of dsRNA, read 12 h later; inducer not stated
Read-out: 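Chemiluminescent measurement of peroxidase in the medium 12 h after reporter induction, following 5 days of dsRNA, given as a z-score per plate; higher means more secretion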
Direction: z-score: higher = more reporter secreted into medium
In all, the deposit lists about 23,000 reagents; this is a random part of those with a known target gene and a result. 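Reduced-secretion tags in replicate 1 do not always agree with the z-scores; no criterion for assigning the tags was given.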 Names joined by + are all predicted targets of the reagent. Not given: the amount of reagent.

| gene knocked down | dsRNA | z-score, replicate 1 | z-score, replicate 2 | z-score, replicate 3 | z-score, replicate 4 | phenotype, replicate 1 |
| --- | --- | --- | --- | --- | --- | --- |
| CG6179 | DRSC19973 | 0.56 | 0.66 | – | – | – |
| CG43342 | DRSC13561 | 0.2 | 0.28 | – | – | – |
| mRpL22 (mitochondrial ribosomal protein L22) | DRSC19915 | -0.17 | -0.66 | – | – | – |
| CG9664 | DRSC00725 | 0.47 | 0.52 | – | – | – |
| Cpr92A (Cuticular protein 92A) | DRSC16000 | 0.13 | 0.5 | – | – | – |
| CG34133 | DRSC16319 | 0.41 | 0.44 | – | – | – |
| CG34133 | DRSC22239 | 0.17 | 0.64 | – | – | – |
| snoRNA:U31:54Ec + snoRNA:snR38:54Eb + snoRNA:U27:54Eb + 8 more | DRSC06458 | 0.01 | 0.13 | – | – | – |
| CG44085 | DRSC02922 | -4.77 | -3.51 | – | – | reduced secretion |
| CG44085 | DRSC02929 | 0.56 | 0.61 | – | – | – |
| CG3335 | DRSC10358 | -0.15 | 0.15 | – | – | – |
| Ir48c (Ionotropic receptor 48c) | DRSC06154 | -2.37 | -1.84 | – | – | reduced secretion |
| LpR1 (Lipophorin receptor 1) | DRSC15665 | 0.39 | 0.25 | – | – | – |
| LpR1 (Lipophorin receptor 1) | DRSC15669 | 0.26 | 0 | – | – | – |
| LpR1 (Lipophorin receptor 1) | DRSC15670 | 0.41 | 0.47 | – | – | – |
| mav (maverick) | DRSC17149 | 0.32 | 0.38 | – | – | – |
| Naa40 (N(alpha)-acetyltransferase 40) | DRSC16265 | 0.24 | 0.39 | – | – | – |
| CanB (Calcineurin B) | DRSC18449 | 0.32 | 0.09 | – | – | – |
| sli (slit) | DRSC07684 | -4.19 | 0.45 | – | – | reduced secretion |
| sli (slit) | DRSC22936 | 0.99 | 0.2 | – | – | – |
| mRpL49 (mitochondrial ribosomal protein L49) | DRSC19908 | 0.18 | -0.13 | – | – | – |
| CG11291 | DRSC04097 | 0.17 | 0.11 | – | – | – |
| Eaat2 (Excitatory amino acid transporter 2) | DRSC00032 | 0.36 | 0.18 | – | – | – |
| Eaat2 (Excitatory amino acid transporter 2) | DRSC00749 | 0.28 | 0.37 | – | – | – |
| Blos4 | DRSC10151 | 0.61 | 0.58 | – | – | – |
| CG3528 | DRSC00611 | 0.06 | -0.04 | – | – | – |
| RSG7 (Regulator of G-protein signaling 7) | DRSC20274 | 0.04 | 0.2 | – | – | – |
| RSG7 (Regulator of G-protein signaling 7) | DRSC22852 | 0.19 | -0.16 | – | – | – |
| Trax (Translin associated factor X) | DRSC15709 | 0.4 | 0.18 | – | – | – |
| Cngl (Cyclic nucleotide-gated ion channel-like) | DRSC19089 | -1.39 | 0.51 | – | – | – |
| Cngl (Cyclic nucleotide-gated ion channel-like) | DRSC19795 | -0.04 | 0.11 | – | – | – |
| Cngl (Cyclic nucleotide-gated ion channel-like) | DRSC20318 | -0.07 | -0.51 | – | – | – |
| lute | DRSC14812 | 0.27 | 0.23 | – | – | – |
| lute | DRSC15769 | 0.17 | 0.15 | – | – | – |
| Su(dx) (Suppressor of deltex) | DRSC00791 | 0.27 | 0.18 | – | – | – |
| Inx7 (Innexin 7) | DRSC18784 | 0.36 | 0.46 | – | – | – |
| Gdh (Glutamate dehydrogenase) | DRSC16679 | 0.24 | 0.01 | – | – | – |
| CG1620 | DRSC06603 | 0.23 | 0.06 | – | – | – |
| CG31496 | DRSC12547 | -1.15 | -0.83 | – | – | – |
| Capa (Capability) | DRSC15058 | 0.4 | 0.51 | – | – | – |
| C3G (C3G guanyl-nucleotide exchange factor) | DRSC17745 | 0.15 | 0.4 | – | – | – |
| C3G (C3G guanyl-nucleotide exchange factor) | DRSC17929 | 0.29 | 0.42 | – | – | – |
| C3G (C3G guanyl-nucleotide exchange factor) | DRSC22329 | 0.7 | -0.08 | – | – | – |
| ppk7 (pickpocket 7) | DRSC03236 | 0.36 | 0.16 | – | – | – |
| CG5783 | DRSC02894 | 0.37 | 0.17 | – | – | – |
| Hem (HEM-protein) | DRSC11865 | 0.4 | 0.2 | – | – | – |
| mmy (mummy) | DRSC02002 | -0.64 | -1.26 | – | – | – |
| pio (piopio) | DRSC04386 | -0.12 | -0.26 | – | – | – |
| CG42241 (retired record) | DRSC04007 | 0.22 | – | – | – | – |
| sdt (stardust) | DRSC17555 | -0.3 | 0.37 | – | – | – |
| sdt (stardust) | DRSC17556 | 0.26 | 0.25 | – | – | – |
| sdt (stardust) | DRSC17860 | 0.08 | 0.53 | – | – | – |
| sdt (stardust) | DRSC17861 | 0.22 | 0.47 | – | – | – |
| sdt (stardust) | DRSC18022 | 0.28 | 0.74 | – | – | – |
| sdt (stardust) | DRSC18025 | -1.05 | -0.59 | – | – | – |
| sdt (stardust) | DRSC18026 | -1.49 | -1.64 | – | – | – |
| sdt (stardust) | DRSC18027 | 0.39 | 0.41 | – | – | – |
| sdt (stardust) | DRSC18108 | 0.44 | 0.65 | – | – | – |
| ND-B14.5AL (NADH dehydrogenase (ubiquinone) B14.5 A subunit-like) | DRSC11795 | -0.03 | 0.42 | – | – | – |
| Eig71Ed (Ecdysone-induced gene 71Ed) | DRSC11151 | 0.39 | 0.45 | – | – | – |
| vkg (viking) | DRSC03632 | -0.1 | 0.05 | – | – | – |
| Atg9 (Autophagy-related 9) | DRSC06848 | 0.13 | 0.34 | – | – | – |
| CG6878 | DRSC10737 | 0.22 | -0.11 | – | – | – |
| Col4a1 (Collagen type IV alpha 1) | DRSC03291 | 0.41 | 0.31 | – | – | – |
| Coq3 (Coenzyme Q3) | DRSC03168 | 0.08 | 0.15 | – | – | – |
| puc (puckered) | DRSC17034 | -2.11 | -0.64 | – | – | reduced secretion |
| sinah (sina homologue) | DRSC09910 | 0.32 | 0.35 | – | – | – |
| sinah (sina homologue) | DRSC22181 | -0.86 | -0.06 | – | – | – |
| Klp10A (Kinesin-like protein at 10A) | DRSC19601 | 0.08 | 0.18 | – | – | – |
| asRNA:CR31144 + RpL3 | DRSC16834 | -1.87 | -2.33 | – | – | reduced secretion |
| Tango11 (Transport and Golgi organization 11) | DRSC03890 | -1.88 | -1.15 | – | – | reduced secretion |
| Tango11 (Transport and Golgi organization 11) | DRSC03892 | -0.03 | 0.21 | – | – | – |
| CG31650 | DRSC03140 | -0.96 | 0.42 | 0.23 | -0.48 | reduced secretion |
| CG10064 | DRSC09689 | 0.21 | 0.33 | – | – | – |
| CG15740 | DRSC19706 | -4.11 | -2.25 | – | – | reduced secretion |
| bdl (borderless) | DRSC00271 | 0.45 | 0.35 | – | – | – |
| Pez | DRSC03397 | 0.39 | 0.15 | – | – | – |
| hrm (hermes) | DRSC04853 | 0.23 | 0.26 | – | – | – |
| Ide (Insulin degrading metalloproteinase) | DRSC11867 | 0.27 | 0.18 | – | – | – |
| Zw (Zwischenferment) | DRSC20303 | -7.25 | 0.37 | – | – | reduced secretion |
| CG43091 | DRSC13571 | 0.42 | 0.28 | – | – | – |
| CG14453 | DRSC11710 | 0.22 | 0.36 | 0.43 | 0.6 | – |
| CG30187 | DRSC22461 | -0.42 | -0.41 | – | – | – |
| Prosalpha2 (Proteasome alpha2 subunit) | DRSC16798 | -3.53 | -4.49 | – | – | reduced secretion |
| foxo (forkhead box, sub-group O) | DRSC13017 | -3.87 | -2.5 | – | – | reduced secretion |
| foxo (forkhead box, sub-group O) | DRSC15463 | 0.41 | 0.26 | – | – | – |
| CG5194 | DRSC10492 | 0.24 | 0.33 | – | – | – |
| narya | DRSC19439 | 0.29 | 0.18 | – | – | – |
| CG5510 | DRSC15823 | -0.12 | 0.16 | – | – | – |
| CG10996 | DRSC19363 | 0.31 | 0.46 | – | – | – |
| CG10321 | DRSC04061 | -0.11 | 0.43 | – | – | – |
| CG32645 | DRSC19683 | 0.5 | 0.55 | – | – | – |
| CG32645 | DRSC19889 | 0.31 | 0.53 | – | – | – |
| CG14421 | DRSC17918 | 0.49 | 0.49 | – | – | – |
| EloB (Elongin B) | DRSC16663 | -0.03 | 0.27 | – | – | – |
| Ciz1 (Ciz1 zinc finger protein) | DRSC09675 | -0.91 | -0.9 | – | – | – |
| CG2065 | DRSC06813 | 0.3 | 0.53 | – | – | – |
| CG2065 | DRSC21328 | 2.23 | 1.87 | – | – | – |
| mRpS5 (mitochondrial ribosomal protein S5) | DRSC21380 | 1.21 | 0.32 | – | – | – |
| Glut3 (Glucose transporter type 3) | DRSC16681 | 0.36 | 0.43 | – | – | – |
| CG14383 | DRSC14841 | 0.38 | 0.22 | – | – | – |
| CG5068 | DRSC10476 | 0.26 | 0.21 | – | – | – |
| MED20 (Mediator complex subunit 20) | DRSC03463 | -0.84 | -0.87 | – | – | – |
| kl-3 (retired record) | DRSC20730 | 0.41 | -0.12 | – | – | – |
| kl-3 (retired record) | DRSC20891 | 0.53 | 0.27 | – | – | – |
| kl-3 (retired record) | DRSC20934 | -0.94 | 0.01 | – | – | – |

In a second layout: results already given
vkg (viking) [DRSC03632]
- z-score, replicate 1: -0.1
- z-score, replicate 2: 0.05

Atg9 (Autophagy-related 9) [DRSC06848]
- z-score, replicate 1: 0.13
- z-score, replicate 2: 0.34

CG6878 [DRSC10737]
- z-score, replicate 1: 0.22
- z-score, replicate 2: -0.11

Col4a1 (Collagen type IV alpha 1) [DRSC03291]
- z-score, replicate 1: 0.41
- z-score, replicate 2: 0.31

Coq3 (Coenzyme Q3) [DRSC03168]
- z-score, replicate 1: 0.08
- z-score, replicate 2: 0.15
